Source: patent US20230227514A1, “BETA-ARRESTIN COMPOSITIONS AND ASSOCIATED METHODS” (Duke University, priority 2020, published 2023)
Results are given in words; binding and its absence hold for the method and conditions named. Some binding calls cover weakened binding; strength is not graded here.

Protein sequences, listed by entry. Tags and fused reporters are not part of them. Lines headed by an entry give the natural chain unless they say otherwise; changes in a name come on top.
UniProt P25095: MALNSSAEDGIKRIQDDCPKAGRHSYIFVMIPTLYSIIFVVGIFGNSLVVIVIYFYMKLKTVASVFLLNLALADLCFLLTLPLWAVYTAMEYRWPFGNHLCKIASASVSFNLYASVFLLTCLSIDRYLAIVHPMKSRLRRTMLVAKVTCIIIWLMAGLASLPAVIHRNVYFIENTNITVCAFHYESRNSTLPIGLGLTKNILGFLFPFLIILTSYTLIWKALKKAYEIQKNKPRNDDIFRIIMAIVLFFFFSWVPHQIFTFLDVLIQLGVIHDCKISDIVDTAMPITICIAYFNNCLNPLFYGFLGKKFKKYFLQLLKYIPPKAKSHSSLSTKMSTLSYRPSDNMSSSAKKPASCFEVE
UniProt P29067: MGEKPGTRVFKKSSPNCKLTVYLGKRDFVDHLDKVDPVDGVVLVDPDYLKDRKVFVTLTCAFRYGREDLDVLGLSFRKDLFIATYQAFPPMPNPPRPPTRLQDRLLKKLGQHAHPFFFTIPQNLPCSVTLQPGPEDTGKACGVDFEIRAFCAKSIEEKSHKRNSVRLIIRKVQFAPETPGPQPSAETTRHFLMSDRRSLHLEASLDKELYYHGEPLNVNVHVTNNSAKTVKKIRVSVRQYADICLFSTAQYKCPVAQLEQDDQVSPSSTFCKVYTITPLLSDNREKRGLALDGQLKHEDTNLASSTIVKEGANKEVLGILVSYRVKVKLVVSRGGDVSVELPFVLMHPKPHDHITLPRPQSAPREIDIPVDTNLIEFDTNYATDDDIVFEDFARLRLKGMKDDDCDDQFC

Target: HA-AT1aR (UniProt P25095)
Assay: confocal microscopy in HEK-293 cells after agonist, data not shown

Substance | binding
YFP-βarrestin2-K296R (from UniProt P29067 1-410) | binds
YFP-βarrestin2-WT (from UniProt P29067 1-410) | binds
